Data on two molecules can be found in article doi:10.1101/854158 (bioRxiv, 2019).

Protein sequences, listed by entry. Tags and fused reporters are not part of them.
UniProt Q9BXW9: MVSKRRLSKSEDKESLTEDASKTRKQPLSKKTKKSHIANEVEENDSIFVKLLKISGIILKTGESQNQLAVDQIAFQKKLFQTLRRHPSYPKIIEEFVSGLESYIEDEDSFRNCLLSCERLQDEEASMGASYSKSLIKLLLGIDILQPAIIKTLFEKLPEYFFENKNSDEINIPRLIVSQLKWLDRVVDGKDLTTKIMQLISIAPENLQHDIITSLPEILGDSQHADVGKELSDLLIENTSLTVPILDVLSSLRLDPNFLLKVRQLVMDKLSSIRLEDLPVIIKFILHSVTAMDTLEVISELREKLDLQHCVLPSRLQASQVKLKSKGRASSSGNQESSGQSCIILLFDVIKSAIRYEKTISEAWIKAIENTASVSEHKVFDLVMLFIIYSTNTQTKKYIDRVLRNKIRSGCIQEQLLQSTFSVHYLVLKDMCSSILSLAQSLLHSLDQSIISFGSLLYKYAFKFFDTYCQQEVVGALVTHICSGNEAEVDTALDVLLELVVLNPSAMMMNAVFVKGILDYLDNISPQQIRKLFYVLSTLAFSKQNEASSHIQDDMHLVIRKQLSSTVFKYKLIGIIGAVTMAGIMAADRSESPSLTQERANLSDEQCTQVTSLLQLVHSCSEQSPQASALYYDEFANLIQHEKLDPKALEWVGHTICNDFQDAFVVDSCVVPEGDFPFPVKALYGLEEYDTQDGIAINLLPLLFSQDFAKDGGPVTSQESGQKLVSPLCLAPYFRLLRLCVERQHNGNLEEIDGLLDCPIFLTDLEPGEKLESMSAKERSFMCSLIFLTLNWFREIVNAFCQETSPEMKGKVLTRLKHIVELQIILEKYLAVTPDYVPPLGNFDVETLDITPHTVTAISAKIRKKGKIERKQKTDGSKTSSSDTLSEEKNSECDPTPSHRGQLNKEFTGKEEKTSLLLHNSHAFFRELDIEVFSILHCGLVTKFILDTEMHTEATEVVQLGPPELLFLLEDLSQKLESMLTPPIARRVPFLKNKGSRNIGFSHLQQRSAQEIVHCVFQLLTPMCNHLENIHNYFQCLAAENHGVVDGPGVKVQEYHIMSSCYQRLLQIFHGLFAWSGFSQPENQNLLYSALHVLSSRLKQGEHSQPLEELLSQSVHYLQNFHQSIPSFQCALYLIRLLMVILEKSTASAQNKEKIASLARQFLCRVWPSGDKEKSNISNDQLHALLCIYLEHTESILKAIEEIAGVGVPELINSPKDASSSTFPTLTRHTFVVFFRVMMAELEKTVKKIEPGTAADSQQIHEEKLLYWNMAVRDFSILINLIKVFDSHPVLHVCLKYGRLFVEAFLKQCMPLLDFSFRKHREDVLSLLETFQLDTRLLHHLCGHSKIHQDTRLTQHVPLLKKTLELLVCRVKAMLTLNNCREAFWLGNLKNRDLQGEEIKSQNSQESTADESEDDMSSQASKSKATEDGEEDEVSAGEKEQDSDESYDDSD

Experiment in all cases: cryo-EM structure
One assay has as its target T1, FANCL (human) (UniProt Q9NW38).
T1 sequence: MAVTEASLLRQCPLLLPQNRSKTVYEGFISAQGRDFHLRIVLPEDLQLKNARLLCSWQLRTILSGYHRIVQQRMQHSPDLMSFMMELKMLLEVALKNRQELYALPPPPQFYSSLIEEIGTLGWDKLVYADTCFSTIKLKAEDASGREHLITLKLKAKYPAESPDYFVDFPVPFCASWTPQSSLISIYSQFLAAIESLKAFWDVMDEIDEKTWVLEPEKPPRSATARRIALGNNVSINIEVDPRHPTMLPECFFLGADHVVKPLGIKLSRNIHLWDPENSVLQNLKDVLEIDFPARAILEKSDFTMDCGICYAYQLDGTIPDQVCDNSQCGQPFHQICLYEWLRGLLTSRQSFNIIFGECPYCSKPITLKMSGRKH

The target in another assay is T2, FANCE (human, UniProt Q9HB96 1-536).
T2 sequence: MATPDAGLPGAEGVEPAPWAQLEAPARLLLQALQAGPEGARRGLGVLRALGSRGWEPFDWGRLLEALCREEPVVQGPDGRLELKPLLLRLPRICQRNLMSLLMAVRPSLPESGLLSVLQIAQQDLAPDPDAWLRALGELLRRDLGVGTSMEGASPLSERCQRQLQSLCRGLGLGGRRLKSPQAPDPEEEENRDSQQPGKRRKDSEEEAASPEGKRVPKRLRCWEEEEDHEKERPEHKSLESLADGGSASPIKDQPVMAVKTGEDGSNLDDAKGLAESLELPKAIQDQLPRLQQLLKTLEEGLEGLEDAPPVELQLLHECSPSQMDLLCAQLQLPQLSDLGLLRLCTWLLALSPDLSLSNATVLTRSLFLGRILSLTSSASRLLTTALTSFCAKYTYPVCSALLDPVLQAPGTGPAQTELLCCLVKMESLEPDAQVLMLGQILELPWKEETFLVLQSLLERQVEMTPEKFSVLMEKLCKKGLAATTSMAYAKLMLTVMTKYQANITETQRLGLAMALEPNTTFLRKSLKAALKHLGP

In a further assay the target is T3, FAAP100 (human), Q0VG06.
T3 chain: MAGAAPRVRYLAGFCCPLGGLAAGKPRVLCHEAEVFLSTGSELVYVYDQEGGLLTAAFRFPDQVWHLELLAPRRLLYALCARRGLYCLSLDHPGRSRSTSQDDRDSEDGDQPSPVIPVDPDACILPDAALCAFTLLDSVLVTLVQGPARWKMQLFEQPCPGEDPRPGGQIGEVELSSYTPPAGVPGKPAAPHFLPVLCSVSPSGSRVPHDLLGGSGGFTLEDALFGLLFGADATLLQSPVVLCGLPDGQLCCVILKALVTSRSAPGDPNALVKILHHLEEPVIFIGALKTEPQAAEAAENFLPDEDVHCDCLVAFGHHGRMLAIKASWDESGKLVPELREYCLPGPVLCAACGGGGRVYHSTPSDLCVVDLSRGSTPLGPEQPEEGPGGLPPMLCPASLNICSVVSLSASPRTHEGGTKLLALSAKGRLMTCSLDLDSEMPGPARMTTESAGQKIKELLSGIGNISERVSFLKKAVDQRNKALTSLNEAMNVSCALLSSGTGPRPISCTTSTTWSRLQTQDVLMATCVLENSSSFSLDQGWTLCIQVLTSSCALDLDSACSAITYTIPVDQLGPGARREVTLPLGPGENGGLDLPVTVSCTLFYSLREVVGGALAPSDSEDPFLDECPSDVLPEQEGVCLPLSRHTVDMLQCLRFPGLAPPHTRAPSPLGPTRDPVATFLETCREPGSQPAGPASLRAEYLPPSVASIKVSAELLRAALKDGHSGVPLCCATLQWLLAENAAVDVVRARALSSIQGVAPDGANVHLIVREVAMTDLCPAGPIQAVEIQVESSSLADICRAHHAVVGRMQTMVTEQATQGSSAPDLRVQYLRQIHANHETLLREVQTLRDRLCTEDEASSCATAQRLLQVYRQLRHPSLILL
As to conditions: remark: other sources report otherwise.

Results are given in words; binding and its absence hold for the method and conditions named. Some results given as binding are weak or reduced against the parent protein; the word gives no strength.

For the molecule FANCD2 (from UniProt Q9BXW9 1-1451), the binding entry with FANCL (human) and in the assay with FANCE was “binds” each time.

B1: FAAP100 (natural protein)
chain: MAGAAPRVRYLAGFCCPLGGLAAGKPRVLCHEAEVFLSTGSELVYVYDQEGGLLTAAFRFPDQVWHLELLAPRRLLYALCARRGLYCLSLDHPGRSRSTSQDDRDSEDGDQPSPVIPVDPDACILPDAALCAFTLLDSVLVTLVQGPARWKMQLFEQPCPGEDPRPGGQIGEVELSSYTPPAGVPGKPAAPHFLPVLCSVSPSGSRVPHDLLGGSGGFTLEDALFGLLFGADATLLQSPVVLCGLPDGQLCCVILKALVTSRSAPGDPNALVKILHHLEEPVIFIGALKTEPQAAEAAENFLPDEDVHCDCLVAFGHHGRMLAIKASWDESGKLVPELREYCLPGPVLCAACGGGGRVYHSTPSDLCVVDLSRGSTPLGPEQPEEGPGGLPPMLCPASLNICSVVSLSASPRTHEGGTKLLALSAKGRLMTCSLDLDSEMPGPARMTTESAGQKIKELLSGIGNISERVSFLKKAVDQRNKALTSLNEAMNVSCALLSSGTGPRPISCTTSTTWSRLQTQDVLMATCVLENSSSFSLDQGWTLCIQVLTSSCALDLDSACSAITYTIPVDQLGPGARREVTLPLGPGENGGLDLPVTVSCTLFYSLREVVGGALAPSDSEDPFLDECPSDVLPEQEGVCLPLSRHTVDMLQCLRFPGLAPPHTRAPSPLGPTRDPVATFLETCREPGSQPAGPASLRAEYLPPSVASIKVSAELLRAALKDGHSGVPLCCATLQWLLAENAAVDVVRARALSSIQGVAPDGANVHLIVREVAMTDLCPAGPIQAVEIQVESSSLADICRAHHAVVGRMQTMVTEQATQGSSAPDLRVQYLRQIHANHETLLREVQTLRDRLCTEDEASSCATAQRLLQVYRQLRHPSLILL
On to B1, for which the binding result with FAAP100 (human), Q0VG06 was “binds”.
